# Assay results from the supplement of paper PMC3334620.
# In all, about 33,000 sequences were measured (“E-score (-0.5 to 0.5)”: median about -8e-05, highest 2% from about 0.23 on). This is one part of the list.
# Target: T1, Nrg2 (UniProt P38082)
# T1 sequence: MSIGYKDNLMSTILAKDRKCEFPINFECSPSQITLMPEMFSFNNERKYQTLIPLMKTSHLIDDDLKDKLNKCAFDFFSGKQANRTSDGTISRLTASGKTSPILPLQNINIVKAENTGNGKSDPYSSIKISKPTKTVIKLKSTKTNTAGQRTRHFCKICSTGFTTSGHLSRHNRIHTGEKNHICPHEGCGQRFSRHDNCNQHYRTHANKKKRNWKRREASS
# Test: PBM E-score (8-mer binding enrichment) (E-score (-0.5 to 0.5)); higher = stronger / more preferred TF binding
# Conditions: protein concentration: 100 nM; construct: GST-full length
# Procedure, shortened: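 Using PURExpress in vitro transcription/translation, GST-tagged yeast transcription factors were made in full-length or DNA-binding-domain form. These were applied at about 100-200 nM to double-stranded universal all-10-mer Agilent arrays, and bound protein was detected with fluorescent anti-GST. Scans were normalised with masliner before the Universal PBM Analysis Suite assigned E-scores to ungapped eight-base words pooled with their reverse complements.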
row,Sequence,PBM E-score
1,ACAGAGAA,0.111
2,CGAAAAAG,0.137
3,ACGCCCGA,0.0699
4,ACTTCCCA,0.00528
5,CCTGTAAG,-0.15
6,GCATCAAC,0.108
7,AAAATTTA,0.00421
8,AACCGCGT,0.0966
9,CTAGGAGA,-0.18
10,CACGTTCG,-0.105
11,ATACAAAC,0.258
12,ATAGGCCG,-0.153
13,CACAGGTC,-0.0948
14,GTACTTAA,-0.079
15,CCCCTAAG,0.0238
16,GAATTGGA,0.0328
17,CGTTGCCC,-0.0711
18,CATGAACC,0.233
19,CACGTAGC,-0.266
20,TTAATAAA,0.201
21,TGACTCCA,-0.192
22,GTAATGGA,0.188
23,GACCATGC,-0.0321
24,AAGACTTC,-0.17
25,CCGTCAGG,-0.1

row,Sequence,PBM E-score
1,ACTCCTGG,-0.0451
2,CCGATACG,-0.0651
3,AACGAACA,0.148
4,GGCGCCGA,0.0298
5,AGCCTGCC,-0.122
6,TCCAAAAA,-0.0003
7,CAACGTCA,-0.0824
8,GAGACCGA,-0.078
9,AGTGACCG,-0.126
10,ACGTCTAG,0.00915
11,CCTGGCTC,0.0122
12,GCCTAGGC,-0.00779
13,ACTCACGG,0.117
14,CCGACGAA,0.107
15,CAGTAAGA,0.0713
16,ACCGTGGA,-0.124
17,AGTGGTGC,-0.0148
18,ACCCCCTG,-0.272
19,AGGTGAGC,-0.104
20,GCCTGACC,-0.0177
21,ATGACGAC,-0.0155
22,GTCAACCA,-0.176
23,ATCATCCC,0.106
24,CGTTTATC,0.07
25,AACCAACA,0.152

row,Sequence,PBM E-score
1,CGTCATTA,0.113
2,ACTAAACA,0.0979
3,ATAGTGGG,0.0056
4,ACCACGCG,-0.0119
5,CGCGTGGA,-0.0926
6,GTTAGGGA,0.0242
7,CGTGGCAG,-0.0439
8,ACTTTCTC,-0.0867
9,GGTTTCAA,0.0831
10,GCCCGGTA,-0.127
11,GTCGATCA,-0.0482
12,AATCTTGA,-0.147
13,ATTCGTTA,0.165
14,ATTTTCCG,0.249
15,CGTAAATA,-0.0234
16,ATTGAGCG,0.0439
17,CGGACTGC,-0.17
18,AATGCATG,0.174
19,CAGTTAAC,0.117
20,AGGCATGG,-0.0771
21,ACCCATAA,0.0509
22,GCTGCCCC,-0.205
23,AGATCGAG,0.0728
24,GCCCCCTA,-0.212
25,AGCATGCC,-0.172

row,Sequence,PBM E-score
1,GGAAGTCA,-0.0228
2,AGTGCCTG,-0.0787
3,CACGCTAA,-0.149
4,CGCCCGCA,0.229
5,AATGCTTA,0.0576
6,AAACGAGA,0.0619
7,GGGGTCAA,0.0278
8,TGGCAGAA,0.0411
9,CCCTGTTC,0.0778
10,CGAATCTA,0.0531
11,GATCCCCA,0.0707
12,CAACTGGG,-0.0587
13,GAGCACAC,-0.173
14,ATCTCGCG,0.282
15,CTTCCAAG,0.00164
16,GTTGCATA,0.0883
17,ATGTTAAC,0.0602
18,AAGCCATG,-0.0445
19,ATCTACTA,0.115
20,AGTCTCAG,-0.0158
21,ACTGTTTA,-0.0842
22,GACACCGA,-0.122
23,AGCAGCTA,0.173
24,AACCCACC,0.0928
25,CACTCAGG,0.0769

# Some values from the results shown:
# PBM E-score with AAACGAGA reads 0.0619
# PBM E-score with CTTCCAAG reads 0.00164
# PBM E-score with AACCCACC reads 0.0928
# PBM E-score with AGTGCCTG reads -0.0787
# PBM E-score with ATGTTAAC reads 0.0602
# PBM E-score with CACGCTAA reads -0.149

# (further entries)

row,Sequence,PBM E-score
1,AACATAAG,0.246
2,GATACTTA,0.0774
3,CCAATCGA,0.135
4,CCTAAAGC,-0.0871
5,AATCGCTA,-0.14
6,GCCCTGAA,0.22
7,TGAACTCA,0.0191
8,GGGAGTAC,-0.155
9,ATCCATAC,-0.00501
10,ACCCAACG,0.162
11,ATGAAATA,0.14
12,GGGTAGAA,-0.196
13,CCCATTCC,-0.124
14,ATATGGAC,0.0806
15,CTTCAACC,0.0408
16,GCAGGCCC,-0.189
17,AAGATTAG,-0.0352
18,AAACTCCC,-0.0959
19,GATGTCCC,0.081
20,ATTTTCGA,0.0301
21,GTGGTCTA,-0.14
22,GCCTTAGC,-0.107
23,CCTAACCC,-0.314
24,GTCAGGAC,0.0517
25,AACTAGAA,0.105

row,Sequence,PBM E-score
1,ACGATGCT,-0.142
2,ACACCGTC,-0.175
3,AGCGCCCG,-0.141
4,CTTGGGAA,-0.0729
5,CACGGCCC,-0.253
6,CTAGTAGA,-0.0726
7,AATAGAAC,0.0737
8,GCGTTGAA,0.0451
9,CCGCGCCA,-0.00589
10,CAGTTGAC,0.0781
11,ACACAAAG,0.161
12,CAAATCAA,0.144
13,CCGCACAC,-0.00671
14,TCGAGCGA,0.18
15,CAAGTATG,0.216
16,CCTGATTA,0.143
17,AGATCGGA,-0.0196
18,ACAGTACA,0.0768
19,AATTGTCC,0.0909
20,CCCGGGCC,-0.13
21,GTGTATAA,-0.0972
22,GCCCTCGC,0.0365
23,ATGTGGCG,0.108
24,CCGACGCC,-0.0243
25,AATAGGGT,0.157

row,Sequence,PBM E-score
1,CACACTCA,0.2
2,CCGACTGA,-0.177
3,ATACACTA,0.205
4,AGCCTCCC,-0.381
5,ATTCAACA,0.121
6,AGCCTTTC,-0.125
7,GAAGTCAA,0.122
8,AATCCTTA,-0.0973
9,CCTTTAAC,-0.0434
10,CCCCCCCG,-0.466
11,ATTCGCGA,0.176
12,ATAGTCAT,-0.00142
13,AAAAGCCT,-0.283
14,CGAATCCG,0.02
15,CAGATATA,0.111
16,CACGCTCC,-0.265
17,CTTGAGGC,-0.0455
18,AACAGTAC,0.0545
19,ACGCTGGC,-0.00592
20,AAGTACGC,-0.0553
21,ATTGTACA,-0.0175
22,TTATGCAA,0.1
